Laboratory results from patent US20100021918A1, “METHOD FOR ASSAYING ACTION OF ANTITUMOR AGENT USING SPLICING DEFECTS AS INDEX” (Eisai R&D Management Co., Ltd., priority 2007, published 2010).
The source gives many values for each of these; only a part stands here.

System: peripheral blood mononuclear cells (PBMC)
Test: Microarray analysis (3), dose-dependent intron expression in PBMC at 3, 10, 30 nM, Table 5
Format: cell-based, human
Method: PBMC was suspended in RPMI1640 medium (containing 10% FBS, penicillin, and streptomycin) to 5×10^6 cells/ml and 1 ml of the suspension was plated per well of a 24-well plate. Immediately, 111 μl of 10 times-concentrated (8E,12E,14E)-7-((4-cycloheptylpiperazin-1-yl)carbonyl)oxy-3,6,16,21-tetrahydroxy-6,10,12,16,20-pentamethyl-18,19-epoxytricosa-8,12,14-trien-11-olide was added to the well (six wells per each concentration tested). The cells were then cultured in an incubator with 5% carbon dioxide gas at 37° C. Three hours later, the supernatant was collected and centrifuged at 1500 rpm for five minutes. TRI reagent (SIGMA) (1 ml) was added to each well of the plate from which the supernatant was removed to harvest the cells, which was added to the centrifuged pellet to dissolve. RNA was purified in accordance with the protocol of TRI reagent. RNA was further purified using RNeasy (QIAGEN) and, in accordance with the protocol, DNaseI was added to the samples during the procedure. Absorbance at 260 nm was measured to quantify an amount of RNA.
Ribosomal RNA was removed from 1 μg of each total RNA of control cells (n=3) and cells with the treatment (n=3) using RiboMinus Human/Mouse Transcriptome Isolation Kit (Invitrogen). Single stranded cDNA synthesis, double stranded cDNA synthesis, cRNA synthesis, second single stranded cDNA synthesis, cDNA fragmentation, and cDNA labeling in order were carried out for total RNA from which ribosomal RNA was removed, using GeneChip Whole Transcript Sense Target Labeling and Control Reagents (Affymetrix) to make a cDNA probe. Subsequently, the cDNA probe was used for hybridization with Human Exon 1.0 ST Array (Affymetrix). The array was washed and stained, and luminescence intensity was measured by a scanner.
The expression level of the probe set and the gene was quantified by using Expression Console Ver. 1.0 (Affymetrix) with Summarization Method and Normalization Method being set to “Median polish as used in RMA” and “None”, respectively. The expression level of the probe was normalized with that of the gene.
Probe sets showing that the normalized change in the level expression of the probe set in the group with the treatment at 30 nM was more than 5 times; the expression level of the probe set and the gene in the group with the treatment at 30 nM was more than 100; and probe set annotation was “extended, full, free”, were picked out. Regression analysis was performed with the probe sets extracted for the control group, the group with the treatment at 3 nM, the group with the treatment at 10 nM, and the group with the treatment at 30 nM to determine a p and q value for the slope of regression formula. A gene containing the probe sets with the q value of less than 5% was determined as a candidate gene with increased expression level of the intron regions (Table 5).
In Table 5, for the gene evaluated, gene name (Gene Name), abbreviated name (Gene Symbol), accession number (Accession), alias name (Synonym), transcription cluster number in Human Exon 1.0 ST Array (Human Exon 1.0 ST Array Transcription Cluster ID), chromosome number (Chromosome), type of strand (Strand), start region (Start), stop region (Stop), and change in expression level per 1 nM (Fold Change/nM) were respectively shown.

SMILES: CCC(O)C(C)C1OC1CC(C)(O)/C=C/C=C(\C)C1OC(=O)CC(O)CCC(C)(O)C(OC(=O)N2CCN(C3CCCCCC3)CC2)/C=C/C1C (stereo not shown) [E7107, (8E,12E,14E)-7-((4-cycloheptylpiperazin-1-yl)carbonyl)oxy-3,6,16,21-tetrahydroxy-6,10,12,16,20-pentamethyl-18,19-epoxytricosa-8,12,14-trien-11-olide]
- Fold Change/nM (gene ABLIM1 introns, regression over control, 3, 10, 30 nM): 1.05 nM⁻¹
- Fold Change/nM (gene ACTG1 introns, regression over control, 3, 10, 30 nM): 1.05 nM⁻¹
- Fold Change/nM (gene ACTR3 introns, regression over control, 3, 10, 30 nM): 1.05 nM⁻¹
- Fold Change/nM (gene ANKRD15, intron expression, 3, 10, 30 nM): 1.06 nM⁻¹
- Fold Change/nM (gene AP1GBP1, intron expression, 3, 10, 30 nM): 1.06 nM⁻¹
- Fold Change/nM (gene APLP2, intron expression, 3, 10, 30 nM): 1.06 nM⁻¹
- Fold Change/nM (gene ARRDC2, intron expression, 3, 10, 30 nM): 1.06 nM⁻¹
- Fold Change/nM (gene ASH1L introns, regression over control, 3, 10, 30 nM): 1.05 nM⁻¹
- Fold Change/nM (gene ATP1B3, intron expression, 3, 10, 30 nM): 1.06 nM⁻¹
- Fold Change/nM (gene ATP2A2, intron expression, 3, 10, 30 nM): 1.06 nM⁻¹
- Fold Change/nM (gene ATP6V1H introns, regression over control, 3, 10, 30 nM): 1.05 nM⁻¹
- Fold Change/nM (gene ATP10D, intron expression, 3, 10, 30 nM): 1.06 nM⁻¹
- Fold Change/nM (gene BAZ2A introns, regression over control, 3, 10, 30 nM): 1.05 nM⁻¹
- Fold Change/nM (gene BCL2A1 introns, regression over control, 3, 10, 30 nM): 1.05 nM⁻¹
- Fold Change/nM (gene BCL10 introns, regression over control, 3, 10, 30 nM): 1.05 nM⁻¹
- Fold Change/nM (gene BDP1 introns, regression over control, 3, 10, 30 nM): 1.05 nM⁻¹
- Fold Change/nM (gene BIRC2, intron expression, 3, 10, 30 nM): 1.06 nM⁻¹
- Fold Change/nM (gene BIRC6, intron expression, 3, 10, 30 nM): 1.05 nM⁻¹
- Fold Change/nM (gene BRWD1, intron expression, 3, 10, 30 nM): 1.06 nM⁻¹
- Fold Change/nM (gene C1orf63, intron expression, 3, 10, 30 nM): 1.06 nM⁻¹
- Fold Change/nM (gene C11orf30, intron expression, 3, 10, 30 nM): 1.05 nM⁻¹
- Fold Change/nM (gene CAPN2 introns, regression over control, 3, 10, 30 nM): 1.05 nM⁻¹
- Fold Change/nM (gene CCNT2 // ACMSD introns, regression over control, 3, 10, 30 nM): 1.05 nM⁻¹
- Fold Change/nM (gene CHD1 introns, regression over control, 3, 10, 30 nM): 1.05 nM⁻¹
- Fold Change/nM (gene CKAP4, intron expression, 3, 10, 30 nM): 1.06 nM⁻¹
- Fold Change/nM (gene CNBP, intron expression, 3, 10, 30 nM): 1.05 nM⁻¹
- Fold Change/nM (gene CNNM3 introns, regression over control, 3, 10, 30 nM): 1.05 nM⁻¹
- Fold Change/nM (gene CNOT2, intron expression, 3, 10, 30 nM): 1.06 nM⁻¹
- Fold Change/nM (gene COL4A3BP introns, regression over control, 3, 10, 30 nM): 1.05 nM⁻¹
- Fold Change/nM (gene COQ2 introns, regression over control, 3, 10, 30 nM): 1.05 nM⁻¹
- Fold Change/nM (gene CPEB4, intron expression, 3, 10, 30 nM): 1.06 nM⁻¹
- Fold Change/nM (gene CSF1R introns, regression over control, 3, 10, 30 nM): 1.05 nM⁻¹
- Fold Change/nM (gene CSNK1A1, intron expression, 3, 10, 30 nM): 1.06 nM⁻¹
- Fold Change/nM (gene CTNNB1, intron expression, 3, 10, 30 nM): 1.06 nM⁻¹
- Fold Change/nM (gene CUL4A introns, regression over control, 3, 10, 30 nM): 1.05 nM⁻¹
- Fold Change/nM (gene CYP1B1, intron expression, 3, 10, 30 nM): 1.06 nM⁻¹
- Fold Change/nM (gene DDX5 introns, regression over control, 3, 10, 30 nM): 1.05 nM⁻¹
- Fold Change/nM (gene DERL1 introns, regression over control, 3, 10, 30 nM): 1.05 nM⁻¹
- Fold Change/nM (gene DHX15, intron expression, 3, 10, 30 nM): 1.06 nM⁻¹
- Fold Change/nM (gene DIAPH1 introns, regression over control, 3, 10, 30 nM): 1.05 nM⁻¹
- Fold Change/nM (gene EHD1 introns, regression over control, 3, 10, 30 nM): 1.05 nM⁻¹
- Fold Change/nM (gene EIF4G1 introns, regression over control, 3, 10, 30 nM): 1.05 nM⁻¹
- Fold Change/nM (gene ELOVL5 introns, regression over control, 3, 10, 30 nM): 1.05 nM⁻¹
- Fold Change/nM (gene EML4, intron expression, 3, 10, 30 nM): 1.06 nM⁻¹
- Fold Change/nM (gene FAM78A introns, regression over control, 3, 10, 30 nM): 1.05 nM⁻¹
- Fold Change/nM (gene FLJ36874 introns, regression over control, 3, 10, 30 nM): 1.05 nM⁻¹
- Fold Change/nM (gene FMNL1 introns, regression over control, 3, 10, 30 nM): 1.05 nM⁻¹
- Fold Change/nM (gene FMNL3 introns, regression over control, 3, 10, 30 nM): 1.05 nM⁻¹
- Fold Change/nM (gene FTHL7 // FTH1 // FTHL3 // FTHP1 // FTHL12 // FTHL11 // FTHL8 introns, regression over control, 3, 10, 30 nM): 1.05 nM⁻¹
- Fold Change/nM (gene GBF1 introns, regression over control, 3, 10, 30 nM): 1.05 nM⁻¹
- Fold Change/nM (gene GGA2 introns, regression over control, 3, 10, 30 nM): 1.05 nM⁻¹
- Fold Change/nM (gene GNAS, intron expression, 3, 10, 30 nM): 1.06 nM⁻¹
- Fold Change/nM (gene GSPT1 introns, regression over control, 3, 10, 30 nM): 1.05 nM⁻¹
- Fold Change/nM (gene HELZ introns, regression over control, 3, 10, 30 nM): 1.05 nM⁻¹
- Fold Change/nM (gene HS3ST3B1, intron expression, 3, 10, 30 nM): 1.06 nM⁻¹
